These are yes or no findings as the source states them, for the method shown. In cells and extracts the contact can be indirect. Where a sequence is shown, tags or fusion partners need not be part of it.
Target: T1, FLAG-Lin28b (mouse) (UniProt Q45KJ6)
T1 sequence: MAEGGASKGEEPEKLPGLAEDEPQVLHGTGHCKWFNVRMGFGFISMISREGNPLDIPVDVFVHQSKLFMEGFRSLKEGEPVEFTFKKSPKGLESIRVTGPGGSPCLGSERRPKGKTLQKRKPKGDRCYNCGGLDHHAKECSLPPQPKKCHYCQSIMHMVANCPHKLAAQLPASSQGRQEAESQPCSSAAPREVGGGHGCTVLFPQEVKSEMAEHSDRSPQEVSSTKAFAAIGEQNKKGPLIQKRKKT
Assay: co-IP

- binding: no binding
Substance: TRIM71 protein that lacked the NHL domain (ΔNHL), 3xHA-tagged (human) (domain or fragment)

Source: publication doi:10.1101/2023.01.12.523802
